What all share (test): SPR
In general terms: SPR reads the build-up and loss of mass on a sensor chip optically.

Amino acid sequences for entries named in this document (tags omitted). Residues count along the entry.
UniProt O29494, whole entry E34S: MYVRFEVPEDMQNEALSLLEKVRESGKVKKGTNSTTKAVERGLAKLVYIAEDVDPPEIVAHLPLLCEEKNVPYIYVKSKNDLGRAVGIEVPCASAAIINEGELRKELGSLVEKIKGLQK
UniProt O29494, 2-119: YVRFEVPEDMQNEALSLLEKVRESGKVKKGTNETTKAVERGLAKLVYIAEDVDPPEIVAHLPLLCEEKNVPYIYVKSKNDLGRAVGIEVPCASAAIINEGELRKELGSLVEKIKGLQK

Series [1] concerns the target L7Ae (Archaeoglobus fulgidus (printed A. fulgidus)) (UniProt O29494). As to conditions: SPR: 10 mM HEPES pH 7.4, 150 mM NaCl, 1 mM MgCl2, 0.05% P20, 0.25 mM TCEP, 0.1 mg/ml BSA, 25 ug/ml yeast tRNA, 25 C; recombinant protein; protein details: N-term Twin-Strep-tag, C-term 6xHis.
The target in series [2] is LS12 E34S (UniProt O29494). As to conditions: SPR: 10 mM HEPES pH 7.4, 150 mM NaCl, 1 mM MgCl2, 0.05% P20, 0.25 mM TCEP, 0.1 mg/ml BSA, 25 ug/ml yeast tRNA, 25 C; recombinant protein; protein details: N-term Twin-Strep-tag, C-term 6xHis.
Series [3] concerns the target L7Ae (Archaeoglobus fulgidus) (UniProt O29494). As to conditions: SPR running buffer: 10 mM HEPES pH 7.4, 150 mM NaCl, 0.05% Surfactant P20, 1 mM MgCl2, 0.25 mM TCEP, 0.1 mg/ml BSA, 25 ug/ml yeast tRNA, 25 C; recombinant protein; protein details: N-term Twin-Strep-tag, C-term 6xHis.
For series [4], the target named is LS4 (UniProt O29494). The settings on record: SPR: 10 mM HEPES pH 7.4, 150 mM NaCl, 1 mM MgCl2, 0.05% P20, 0.25 mM TCEP, 0.1 mg/ml BSA, 25 ug/ml yeast tRNA, 25 C; recombinant protein; protein details: N-term Twin-Strep-tag, C-term 6xHis.

Usually Kd stands for a measure of binding affinity in units of concentration.

For part of these data: A weaker result is weaker than the reference pair of the same experiment. For part of these data: The exact form of at least one protein or probe is not confirmed. For part of these data: Negatives hold for the conditions tested. For part of these data: At least one verdict was read from the data and is not stated in words by the source.

As to “GGAUGCAAAGAACGAAAGUUCCAUGACGCAUCCAAAUCGACGAAAGACACAGAACG [CS2-M1]”, the binding result in series [1] and in series [2] was “binds more weakly” each time.

In the case of “GGUGGCAAAGAAAGGCGAAAGCCUUGUGGGGCCAUCAAAUCGACGAAAGACACAGAACG [CS1-M2d]”, in series [3], the binding result was “binds more weakly”.

On to “GGAUGCAGAGAACGAAAGUUCCAUUACGCAUCCAAAUCGACGAAAGACACAGAACG [CS2-M3]”, for which the binding result in series [3] is “binds more weakly”.

In the case of “GGUGGCAGUGAAAGGCGAAAGCCUUGUUAGGCCAUCAAAUCGACGAAAGACACAGAACG [CS1-M3]”, in series [4], the binding result is on record as “no binding”.

Take “GGAUGCAGCGAACGAAAGUUCCAUGACGCAUCCAAAUCGACGAAAGACACAGAACG [CS2-M2]”: the binding result in series [1] and in series [2] was “binds more weakly” each time.

With “GGUGGCAUAGAAAGGCGAAAGCCUUGUGUGGCCAUCAAAUCGACGAAAGACACAGAACG [CS1-M2]”, in series [1], the Kd is greater than 1000 nM.

“GGUGGCAGAGUAAGGCGAAAGCCUUUUGAGGCCAUCAAAUCGACGAAAGACACAGAACG [CS1-M4]”: in series [4], the binding result is “no binding”.

On to “GGAUGCAGAGAACGAAAGUUCCAUGCCGCAUCCAAAUCGACGAAAGACACAGAACG [CS2-M4]”, for which the binding result in series [1] and in series [2] was “binds more weakly” each time.

Turning to “GGUGGCAAAGAAAGGCGAAAGCCUUGUGUGGCCAUCAAAUCGACGAAAGACACAGAACG [CS1-M2e]”, in series [3], the binding result was “binds more weakly”.
